Reference: PubChem BioAssay AID2551 (National Center for Advancing Translational Sciences (NCATS), 2010)
Hit rate of the full screen: of about 310,000 compounds, about 17,000 (5.5%) were called active. The shares of active, inactive and inconclusive entries below differ from those in the screen. The call rests on the fitted dose curve; in most records, active means well fitted inhibition curve with a large enough effect; inconclusive means small, poorly fitted or top-dose-only effect, or effect the other way; inactive means no such curve, though single readings can be large or run the other way. Potencies beside an inconclusive call are fits to weak or partial responses and may not hold up.

Sequences of proteins named here, by UniProt entry; tags and fusion partners are left off. A change or cut given only in a name is not applied to a line headed by its entry.
UniProt P51450: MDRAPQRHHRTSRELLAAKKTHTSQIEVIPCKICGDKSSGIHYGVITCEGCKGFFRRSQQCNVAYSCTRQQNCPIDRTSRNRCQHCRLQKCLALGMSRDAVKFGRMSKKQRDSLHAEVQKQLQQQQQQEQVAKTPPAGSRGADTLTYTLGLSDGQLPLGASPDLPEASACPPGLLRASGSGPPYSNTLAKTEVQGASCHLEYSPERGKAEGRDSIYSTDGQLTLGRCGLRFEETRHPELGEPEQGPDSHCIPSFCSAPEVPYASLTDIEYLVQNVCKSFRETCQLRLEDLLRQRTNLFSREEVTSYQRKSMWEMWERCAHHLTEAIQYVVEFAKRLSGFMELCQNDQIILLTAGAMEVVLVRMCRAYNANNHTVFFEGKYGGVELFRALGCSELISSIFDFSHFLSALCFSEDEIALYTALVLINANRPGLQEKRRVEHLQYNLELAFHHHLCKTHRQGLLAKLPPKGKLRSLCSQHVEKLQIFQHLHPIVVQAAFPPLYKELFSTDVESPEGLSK

Each molecule was assayed against Nuclear receptor ROR-gamma (Mus musculus) (UniProt P51450) (assay: qHTS for inhibitors of ROR gamma transcriptional activity). Conditions: Drosophila S2 Gal4-RORgamma UAS-luciferase reporter, 20 h; activity change, negative = inhibition: at 53.6 µM (top of the series).
Description: NIH Molecular Libraries Probe Production Network [MLPCN] NIH Chemical Genomics Center [NCGC] MLPCN Grant: R03 DA026211-01 Assay Provider: Dan Littman, New York University Assay Overview: The retinoic acid-related orphan receptor (ROR) gamma is a transcription factor that has a central role in the differentiation of Th17 cells, a subset of T helper cells that secrete the inflammatory cytokines IL-17, IL-17F, and IL-22. Th17 cells have been implicated in graft versus host disease, autoimmune disease and asthma. ROR gamma is induced in naive T helper cells in the presence of TGF-beta combined with IL-6, IL-21, or IL-23, and thereafter directs the expression of the Th17 lineage cytokines. To study the mechanism of action of ROR gamma, an insect cell-based assay was screened. This Drosophila Schneider cell line was stably transfected with two vectors: a gene expressing a fusion of the Gal4 DNA binding domain and ROR gamma transactivation domain under the control of the metallothionine promoter and a Photinus luciferase reporter regulated by the Gal4 binding site enhancer, UAS. […] Small molecule inhibitors of ROR gamma activity are detected by a decrease in luciferase reporter activity.
Assay Protocol Summary: For screening, 600 cells in 4 uL/well were dispensed into white solid 1536-well plates (Grenier) using a solenoid-based dispenser. Following transfer of 23 nL compound or DMSO vehicle by a pin tool, the plates were incubated 1 hr at ambient temperature, and 1 uL/well copper sulfate (700 uM final concentration) was added. The plates were centrifuged 15 s at 1000 RPM and incubated 20 hr at ambient temperature. After addition of 1.5 uL Photinus luciferase detection reagent, the plates were incubated 10 min at ambient temperature and then read by an ViewLux (Perkin Elmer) to detect luminescence. Keywords: NIH Roadmap, MLPCN, MLI, MLSMR, qHTS, NCGC, qHTS, nuclear hormone receptor, retinoic acid-related orphan receptor, ROR gamma
Further: nearly all actives have a fitted effect of over 60% in size.
On the % scale 0 is the no-effect control and ±100 the full control effect; potency means the concentration at half of the fitted maximal effect.

SMILES | Potency | activity change, negative = inhibition
N=C1N(/N=C/c2ccccc2)C(=Nc2ccccc2)C(=S)N1c1ccccc1 | active: 4.47 µM | –
CN(C(=O)c1ccno1)c1nnc(-c2ccccn2)s1 | inconclusive: 5.62 µM [activator, single point] | –
CCN(CC)c1ccc(/C=N/N2CCOCC2)cc1 | – | inactive: 29%
CC1(C)Cc2nc3sc4c(SCC(=O)O)ncnc4c3cc2CO1 | active: 8.91 µM | –
Oc1ccc(CNc2ccc(F)cc2)c2cccnc12 | active: 11.2 µM | –
COc1ccc(N(CC(=O)NCCSCc2ccco2)S(=O)(=O)c2ccccc2)cc1OC | – | inactive: -8.7%
Cc1ccc(S(=O)(=O)N(C)C)cc1NC(=O)COC(=O)c1sc2cc(Cl)ccc2c1Cl | – | inactive: 8.32%
COc1ccc(-c2oc3c(OC)c(OC)c(OC)c(O)c3c(=O)c2OC)cc1OC | active: 11.2 µM | –
Cc1cccc(C)c1NC(=O)Cn1cc(C=O)c2ccccc21 | inconclusive: 11.2 µM [activator, partial curve] | –
CCC(c1nnnn1Cc1ccccc1)N1CCN(C(=O)c2ccco2)CC1 (stereo not given) | – | inactive: 19.4% [at 10 µM]
Cc1nnc(NCCc2ccccc2)n(N)c1=O | – | inactive: -24.3%
COc1ccc(C2CC3(CC(C)(C)NC(=S)N3)Oc3cc(O)cc(C)c32)cc1OC (stereo not given) | inconclusive: 11.2 µM [inhibitor, partial curve] | –
CCOC(=S)N/C(=N\S(=O)(=O)c1ccccc1)c1ccccc1 | inconclusive: 20 µM [inhibitor, partial curve, poor fit] | –
O=C(c1c(F)cccc1F)N(Cc1ccccn1)C1CC1 | inconclusive: 20 µM [activator, single point] | –
Cc1onc(C(=O)NN)c1C(=O)Nc1ncc(C(F)(F)F)cc1Cl | inconclusive: 25.1 µM [inhibitor, single point] | –
O=C1NN(c2ccc(F)c(Cl)c2)C(=O)/C1=C\c1cccc(OC(=O)c2cccs2)c1 | – | inactive: 33%
CC1=NN(C(=O)c2cc(C)nn2C)C(O)(C(F)(F)F)C1 (stereo not given) | active: 11.2 µM | –
Cn1c(=O)c(-c2ccc(Cl)cc2)nc2cnc(Oc3cccc(Cl)c3)nc21 | – | inactive: -2.08%
Cc1nc(S/C(=C/c2ccc(-c3ccc(Cl)cc3)o2)C(=O)O)n[nH]1 | active: 1.41 µM | –
N#Cc1ccc(-c2cccnc2)nc1SCc1ccc(Cl)cc1Cl | inconclusive: 25.1 µM [inhibitor, single point] | –
CCCCOC(=O)c1ccccc1N1C(=O)C2C3CCC(C3)C2C1=O (stereo not given) | inconclusive: 14.1 µM [activator, partial curve] | –
COc1ccc(/C=N/NC(=O)c2cccc(C(F)(F)F)c2)cc1 | active: 12.6 µM | –
O=C(Nc1ccc2nc[nH]c2c1)c1ccco1 | – | inactive: -24.8%
Cc1cccc(NC(=O)C2C3CCC4C(CCC32)C4(Cl)Cl)c1 (stereo not given) | inconclusive: 12.6 µM [activator, partial curve] | –
O=C(CCCCCn1c(=S)[nH]c2ccc(Br)cc2c1=O)NCC1CCCO1 (stereo not given) | inconclusive: 20 µM [inhibitor, single point] | –

As a short view, part of the list above:
SMILES | Potency | activity change, negative = inhibition
CCCCOC(=O)c1ccccc1N1C(=O)C2C3CCC(C3)C2C1=O (stereo not given) | inconclusive: 14.1 µM [activator, partial curve] | –
COc1ccc(/C=N/NC(=O)c2cccc(C(F)(F)F)c2)cc1 | active: 12.6 µM | –

(listing goes on)

SMILES | Potency | activity change, negative = inhibition
CC(=O)c1cc(C#N)c(NCCCN(C)C)nc1C | – | inactive: 19.8%
CC(=O)Nc1ccc(Oc2cnc3ccccc3n2)cc1 | inconclusive: 20 µM [activator, single point] | –
S=C(Nc1cccc2ccccc12)NC1CCCCC1 | active: 2 µM | –
O=[N+]([O-])c1cc(/C=N/NC(=S)Nc2ccccc2Cl)ccc1Cl | active: 3.16 µM | –
Cc1ccc(CN(Cc2ccco2)C(=S)Nc2ccccc2C)cc1 | inconclusive: 11.2 µM [inhibitor, partial curve, poor fit] | –
O=C(CSc1nnc(-c2cccnc2)o1)c1cc2ccccc2oc1=O | inconclusive: 35.5 µM [inhibitor, single point] | –
Cc1ccc(C)c(Cn2nnc3c(=O)[nH]c(C4CCCN(C(=O)c5ccco5)C4)nc32)c1 (stereo not given) | – | inactive: 4.78%
CC(C)c1ccc(OCC(=O)Nc2ccccc2C(=O)N2CCOCC2)cc1 | – | inactive: 7.59%
CC(=O)Nc1ccc(S(=O)(=O)N2CCC(C(N)=O)(N3CCCCC3)CC2)cc1 | – | inactive: -5.86%
CC(/C=C/c1ccc2c(c1)OCO2)=N\NC(=O)COc1ccccc1C | inconclusive: 15.8 µM [activator, single point] | –
OC(CN1CCN(c2ccccn2)CC1)Cn1c2ccc(Cl)cc2c2cc(Cl)ccc21 (stereo not given) | – | inactive: -31.9%
COC(=O)C(C)Sc1ncnc2c1c(-c1ccccc1)cn2-c1ccc(OC)cc1 (stereo not given) | inconclusive: 14.1 µM [activator, partial curve] | –
Cc1cc(NCc2ccccc2)c2ccccc2n1 | inconclusive: 35.5 µM [activator, single point] | –
COC(=O)CN1C(=S)N(c2ccc(Cl)cc2)C(=O)C1CC(=O)Nc1ccc(Cl)cc1 (stereo not given) | inconclusive: 12.6 µM [activator, partial curve, poor fit] | –
Cc1ccc(OCc2cc(C(=O)NCc3ccc(OC(F)(F)F)cc3)no2)cn1 | inconclusive: 22.4 µM [activator, single point] | –
CSc1cccc(NC(=S)N2CCCN(Cc3ccc(F)cc3)C2)c1 | inconclusive: 15.8 µM [inhibitor, single point] | –
O=c1cc(-c2ccc(F)cc2F)[nH]c2ccc(F)cc12 | – | inactive: 38.2% [at 96.6 µM]
COc1ccc(CCNC(=O)CCCOc2ccc(Cl)cc2)cc1OC | – | inactive: 10.1%
COc1ccc(/C=N/Nc2ncnc3sc(C)c(C)c23)cc1 | inconclusive: 3.98 µM [inhibitor, single point] | –
CCOC(=O)c1c(CSC(=N)N)n(-c2ccccc2)c2cc(Br)c(OC(C)=O)cc12 | – | inactive: -24.7%
O=C(CCC(=O)Nc1ccccc1)NNS(=O)(=O)c1ccccc1[N+](=O)[O-] | – | inactive: 2.17%
C=CCc1cccc(C2Nc3ccccc3C(=O)N2O)c1O (stereo not given) | active: 7.08 µM | –
COc1ccccc1/C=C/c1nc(S(=O)(=O)c2ccccc2)c(N(C)C)o1 | – | inactive: 11.4%
CCOC(=O)Nc1ccc2c(c1)N(C(=O)C(C)N1CCCC1)c1ccccc1CC2 (stereo not given) | inconclusive: 6.31 µM [inhibitor, single point] | –
Cc1ccc(-n2c(C3CC3c3ccc(Cl)cc3)n[nH]c2=S)cc1 (stereo not given) | active: 2.82 µM | –

Whole records as entered above. Order of values: Potency	activity change, negative = inhibition
`Cc1ccc(OCc2cc(C(=O)NCc3ccc(OC(F)(F)F)cc3)no2)cn1` reads inconclusive: 22.4 µM [activator, single point]	–
`Cc1ccc(-n2c(C3CC3c3ccc(Cl)cc3)n[nH]c2=S)cc1` (stereo not given) reads active: 2.82 µM	–
`O=[N+]([O-])c1cc(/C=N/NC(=S)Nc2ccccc2Cl)ccc1Cl` reads active: 3.16 µM	–
`COc1ccc(CCNC(=O)CCCOc2ccc(Cl)cc2)cc1OC` reads –	inactive: 10.1%

Next part:

SMILES | Potency | activity change, negative = inhibition
Nc1ccc(C(=O)N/N=C/c2cn(Cc3ccccc3)c3ccccc23)cc1 | active: 11.2 µM | –
Clc1ccc(-c2nc3cnccn3c2Nc2ccc3c(c2)OCO3)cc1 | inconclusive: 15.8 µM [activator, single point] | –
Cc1ccc(-c2c(C#N)c(N)n3c(nc4ccccc43)c2C#N)cc1 | inconclusive: 7.08 µM [activator, partial curve] | –
Cc1ccc(NC(=S)NNC(=O)c2ccc(N3CCOCC3)c([N+](=O)[O-])c2)cc1C | inconclusive: 14.1 µM [inhibitor, partial curve] | –
C=CCn1c(SCC(=O)NC(=O)NCc2ccco2)nc2sc(C)c(C)c2c1=O | inconclusive: 35.5 µM [inhibitor, single point] | –
Cn1ccsc1=NC(=O)c1ccccc1F | inconclusive: 2 µM [inhibitor, partial curve, poor fit] | –
COc1ccc(NC(=O)c2cc(C)nc3ccccc23)c(OC)c1 | – | inactive: -13.7%
Cc1occc1-c1nnc(SCC(=O)Nc2ccccc2)n1CCc1ccccc1 | inconclusive: 11.2 µM [inhibitor, partial curve] | –
S=C(Nc1ccccc1Oc1ccccc1)Nc1cccc(Cl)c1Cl | active: 12.6 µM | –
O=C(Cc1ccccc1)Nc1ccc(NC(=O)c2ccccc2)c(Cl)c1 | inconclusive: 35.5 µM [activator, partial curve] | –
Cc1ccc(-c2ccc(S(=O)(=O)NCC3CCCO3)cc2)cc1 (stereo not given) | inconclusive: 15.8 µM [activator, single point] | –
CSc1ncccc1C(=O)NC1CCCCCC1 | inconclusive: 22.4 µM [inhibitor, single point] | –
O=C(Nn1c(O)c(C=C2N=c3ccccc3=N2)sc1=S)c1ccc(Cl)cc1 | inconclusive: 35.5 µM [inhibitor, single point] | –
N#CCCN/N=C(/Cc1nc2ccccc2[nH]1)c1ccc(Cl)cc1 | inconclusive: 22.4 µM [inhibitor, single point] | –
CC(C(=O)NC1CCS(=O)(=O)C1)N1C(=O)/C(=C/c2ccc(Cl)cc2)SC1=S (stereo not given) | inconclusive: 15.8 µM [activator, single point] | –
Cc1c(OCC(=O)NCC2CCC(C(=O)O)CC2)ccc2c(-c3ccccc3)cc(=O)oc12 (stereo not given) | – | inactive: -0.818%
Cn1c(=O)oc2cc(S(=O)(=O)N3CCCC(C(=O)N4CCn5c4nc4ccccc45)C3)ccc21 (stereo not given) | – | inactive: -15.9%
Cc1ccc(OCC(=O)NC(=S)Nc2ccc(S(=O)(=O)Nc3cc(C)on3)cc2)c(Br)c1 | inconclusive: 35.5 µM [activator, single point] | –
Fc1ccccc1/C=N/Nc1ncnc2nc[nH]c12 | inconclusive: 11.2 µM [activator, single point] | –
Cc1c(NC(=O)C(C)OC(=O)c2cccc(S(=O)(=O)N3CCOCC3)c2)c(=O)n(-c2ccccc2)n1C (stereo not given) | – | inactive: 8.14%
CC(C)C(=O)NC(=S)Nc1ccccc1C(=O)Nc1ccccc1 | – | inactive: -34%
Clc1cccc(/C=N/Nc2ncnc3ccccc23)c1 | active: 1.26 µM | –
CC(C)CNS(=O)(=O)c1ccc(CCC(=O)N2CCN(Cc3ccc4c(c3)OCO4)CC2)cc1 | inconclusive: 35.5 µM [activator, single point] | –
CCc1ccc(C(=O)N/N=C/c2ccc(Cl)cc2Cl)nc1 | inconclusive: 25.1 µM [inhibitor, single point] | –
O=C(c1ccc(N2CCOCC2)cc1)c1cccs1 | inconclusive: 35.5 µM [inhibitor, single point] | –
